Source: the supplement of paper PMC12823440, “Inhibitors supercharge kinase turnover through native proteolytic circuits” (Nature, 2025)
The other results are listed elsewhere or left out. Hit calls seldom repeat between salt and free forms of one compound.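 In K562 cells expressing nanoluciferase-fused kinases, luminescence was recorded at 4 h intervals between 2 and 18 h, normalized as percent of control with DMSO at 100% and a positive control at 0%. A significant (2 sigma) signal drop marks a time point as decreased. The authors' rule for a hit is not shown and takes in more than the number of time points.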

Amino acid sequences for entries named in this document (tags omitted). A change or cut given only in a name is not applied to a line headed by its entry.
UniProt P07949, whole entry, looked up: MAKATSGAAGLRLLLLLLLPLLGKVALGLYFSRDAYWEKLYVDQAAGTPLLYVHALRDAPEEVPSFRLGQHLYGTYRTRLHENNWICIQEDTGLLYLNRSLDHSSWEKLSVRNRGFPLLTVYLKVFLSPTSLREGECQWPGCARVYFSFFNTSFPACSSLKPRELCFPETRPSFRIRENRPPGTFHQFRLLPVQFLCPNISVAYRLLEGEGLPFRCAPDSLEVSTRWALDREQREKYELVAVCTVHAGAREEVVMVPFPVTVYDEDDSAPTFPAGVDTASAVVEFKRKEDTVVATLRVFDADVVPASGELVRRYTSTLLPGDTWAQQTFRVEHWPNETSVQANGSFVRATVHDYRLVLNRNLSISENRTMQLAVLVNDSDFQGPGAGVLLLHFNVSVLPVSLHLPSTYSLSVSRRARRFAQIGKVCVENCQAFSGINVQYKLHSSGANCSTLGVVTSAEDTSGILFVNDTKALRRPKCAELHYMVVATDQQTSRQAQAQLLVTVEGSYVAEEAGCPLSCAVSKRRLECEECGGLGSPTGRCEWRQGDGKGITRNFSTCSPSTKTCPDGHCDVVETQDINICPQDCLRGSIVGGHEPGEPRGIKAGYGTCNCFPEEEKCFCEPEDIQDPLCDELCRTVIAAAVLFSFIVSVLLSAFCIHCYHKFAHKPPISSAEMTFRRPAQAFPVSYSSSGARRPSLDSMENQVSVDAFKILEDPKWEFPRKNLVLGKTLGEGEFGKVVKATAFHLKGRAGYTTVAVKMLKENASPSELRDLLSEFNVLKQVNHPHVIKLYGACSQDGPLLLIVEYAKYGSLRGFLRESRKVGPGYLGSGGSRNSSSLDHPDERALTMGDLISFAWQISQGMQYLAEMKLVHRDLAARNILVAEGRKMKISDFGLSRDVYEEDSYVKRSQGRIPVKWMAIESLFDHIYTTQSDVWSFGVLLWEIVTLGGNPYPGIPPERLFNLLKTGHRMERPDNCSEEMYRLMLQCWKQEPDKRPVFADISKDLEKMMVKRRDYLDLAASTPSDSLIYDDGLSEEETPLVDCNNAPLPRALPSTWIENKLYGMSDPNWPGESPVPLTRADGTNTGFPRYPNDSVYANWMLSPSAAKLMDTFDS
UniProt P07949, whole entry M918T, looked up: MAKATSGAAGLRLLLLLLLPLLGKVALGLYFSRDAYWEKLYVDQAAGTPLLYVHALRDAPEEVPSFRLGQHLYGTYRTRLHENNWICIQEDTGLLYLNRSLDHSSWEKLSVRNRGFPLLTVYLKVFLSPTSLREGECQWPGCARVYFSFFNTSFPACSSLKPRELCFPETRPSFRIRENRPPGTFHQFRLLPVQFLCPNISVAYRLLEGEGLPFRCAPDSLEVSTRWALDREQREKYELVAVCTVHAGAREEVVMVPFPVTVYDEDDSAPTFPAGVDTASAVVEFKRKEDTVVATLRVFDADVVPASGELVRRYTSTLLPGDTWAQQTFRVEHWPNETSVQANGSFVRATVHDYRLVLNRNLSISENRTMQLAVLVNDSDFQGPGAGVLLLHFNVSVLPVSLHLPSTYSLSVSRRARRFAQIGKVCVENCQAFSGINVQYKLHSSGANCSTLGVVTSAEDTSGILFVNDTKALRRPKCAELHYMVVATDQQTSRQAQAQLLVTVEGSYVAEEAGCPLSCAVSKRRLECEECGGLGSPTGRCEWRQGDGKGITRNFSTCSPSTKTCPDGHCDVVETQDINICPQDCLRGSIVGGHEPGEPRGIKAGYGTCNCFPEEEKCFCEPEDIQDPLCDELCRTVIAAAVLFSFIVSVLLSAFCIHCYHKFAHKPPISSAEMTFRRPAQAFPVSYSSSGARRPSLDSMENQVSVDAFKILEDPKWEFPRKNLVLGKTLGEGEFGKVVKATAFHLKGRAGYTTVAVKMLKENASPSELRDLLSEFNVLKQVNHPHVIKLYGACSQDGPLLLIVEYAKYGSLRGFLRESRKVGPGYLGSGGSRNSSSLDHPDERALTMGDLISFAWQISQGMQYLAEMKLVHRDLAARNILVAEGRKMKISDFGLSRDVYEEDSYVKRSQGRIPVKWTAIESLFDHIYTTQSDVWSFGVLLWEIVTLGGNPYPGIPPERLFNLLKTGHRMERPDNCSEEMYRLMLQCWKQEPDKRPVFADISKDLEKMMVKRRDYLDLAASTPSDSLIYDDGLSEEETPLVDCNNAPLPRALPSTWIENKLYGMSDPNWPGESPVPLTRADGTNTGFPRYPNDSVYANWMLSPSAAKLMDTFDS
UniProt Q13546: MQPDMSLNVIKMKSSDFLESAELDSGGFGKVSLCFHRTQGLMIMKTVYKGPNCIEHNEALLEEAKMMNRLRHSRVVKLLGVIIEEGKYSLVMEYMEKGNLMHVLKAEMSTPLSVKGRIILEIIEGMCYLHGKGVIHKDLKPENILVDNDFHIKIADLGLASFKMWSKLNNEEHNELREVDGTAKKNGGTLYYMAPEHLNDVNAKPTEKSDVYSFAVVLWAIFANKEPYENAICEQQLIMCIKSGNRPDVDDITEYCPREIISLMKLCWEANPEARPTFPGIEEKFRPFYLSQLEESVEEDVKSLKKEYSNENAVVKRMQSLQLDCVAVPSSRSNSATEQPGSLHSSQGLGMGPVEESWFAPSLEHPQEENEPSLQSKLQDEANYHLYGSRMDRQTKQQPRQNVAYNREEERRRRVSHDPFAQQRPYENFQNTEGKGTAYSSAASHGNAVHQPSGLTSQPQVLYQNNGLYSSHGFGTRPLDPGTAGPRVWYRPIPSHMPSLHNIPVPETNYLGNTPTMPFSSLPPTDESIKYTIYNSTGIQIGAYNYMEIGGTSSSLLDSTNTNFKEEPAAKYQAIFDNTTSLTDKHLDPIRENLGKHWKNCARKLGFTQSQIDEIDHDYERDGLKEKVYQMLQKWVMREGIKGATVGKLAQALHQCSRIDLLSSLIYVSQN
UniProt Q9NYA1, whole entry: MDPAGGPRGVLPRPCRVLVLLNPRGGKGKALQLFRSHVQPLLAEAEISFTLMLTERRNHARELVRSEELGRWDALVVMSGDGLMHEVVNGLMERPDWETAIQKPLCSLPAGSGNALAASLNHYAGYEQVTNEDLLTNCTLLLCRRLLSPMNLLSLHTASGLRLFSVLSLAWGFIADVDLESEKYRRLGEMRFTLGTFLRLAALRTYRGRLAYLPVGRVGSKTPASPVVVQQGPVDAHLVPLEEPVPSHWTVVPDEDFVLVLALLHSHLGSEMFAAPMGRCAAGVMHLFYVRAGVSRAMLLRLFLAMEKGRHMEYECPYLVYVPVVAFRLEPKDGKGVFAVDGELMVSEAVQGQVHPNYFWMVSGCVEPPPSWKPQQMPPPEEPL
UniProt Q9Y6E0: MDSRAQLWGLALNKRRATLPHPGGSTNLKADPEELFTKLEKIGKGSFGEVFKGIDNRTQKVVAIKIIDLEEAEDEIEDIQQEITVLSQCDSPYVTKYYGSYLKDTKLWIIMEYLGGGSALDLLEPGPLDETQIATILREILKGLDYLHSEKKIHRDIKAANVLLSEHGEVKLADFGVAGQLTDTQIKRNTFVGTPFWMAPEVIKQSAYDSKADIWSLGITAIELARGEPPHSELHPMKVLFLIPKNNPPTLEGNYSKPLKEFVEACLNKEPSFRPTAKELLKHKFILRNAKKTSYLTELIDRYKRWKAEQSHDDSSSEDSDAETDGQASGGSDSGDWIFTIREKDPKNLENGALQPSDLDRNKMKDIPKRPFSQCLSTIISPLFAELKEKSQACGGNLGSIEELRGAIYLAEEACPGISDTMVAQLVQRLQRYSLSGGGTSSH
UniProt P42680: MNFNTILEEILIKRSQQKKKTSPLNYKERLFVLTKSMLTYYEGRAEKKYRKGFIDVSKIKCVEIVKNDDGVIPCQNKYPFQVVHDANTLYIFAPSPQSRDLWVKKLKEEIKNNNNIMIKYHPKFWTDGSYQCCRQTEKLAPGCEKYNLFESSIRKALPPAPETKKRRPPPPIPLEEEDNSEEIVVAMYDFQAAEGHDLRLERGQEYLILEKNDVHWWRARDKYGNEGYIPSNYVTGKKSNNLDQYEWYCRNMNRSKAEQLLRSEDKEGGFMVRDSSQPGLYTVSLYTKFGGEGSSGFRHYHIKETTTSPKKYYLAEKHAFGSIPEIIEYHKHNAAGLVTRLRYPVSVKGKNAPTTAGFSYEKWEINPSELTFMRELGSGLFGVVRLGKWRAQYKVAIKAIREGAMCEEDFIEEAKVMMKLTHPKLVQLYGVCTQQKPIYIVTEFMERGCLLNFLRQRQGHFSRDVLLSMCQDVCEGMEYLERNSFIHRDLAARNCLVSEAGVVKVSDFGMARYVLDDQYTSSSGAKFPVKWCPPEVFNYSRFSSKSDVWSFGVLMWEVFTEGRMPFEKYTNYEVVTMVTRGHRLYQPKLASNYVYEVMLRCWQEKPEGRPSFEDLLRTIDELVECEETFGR
UniProt P29597: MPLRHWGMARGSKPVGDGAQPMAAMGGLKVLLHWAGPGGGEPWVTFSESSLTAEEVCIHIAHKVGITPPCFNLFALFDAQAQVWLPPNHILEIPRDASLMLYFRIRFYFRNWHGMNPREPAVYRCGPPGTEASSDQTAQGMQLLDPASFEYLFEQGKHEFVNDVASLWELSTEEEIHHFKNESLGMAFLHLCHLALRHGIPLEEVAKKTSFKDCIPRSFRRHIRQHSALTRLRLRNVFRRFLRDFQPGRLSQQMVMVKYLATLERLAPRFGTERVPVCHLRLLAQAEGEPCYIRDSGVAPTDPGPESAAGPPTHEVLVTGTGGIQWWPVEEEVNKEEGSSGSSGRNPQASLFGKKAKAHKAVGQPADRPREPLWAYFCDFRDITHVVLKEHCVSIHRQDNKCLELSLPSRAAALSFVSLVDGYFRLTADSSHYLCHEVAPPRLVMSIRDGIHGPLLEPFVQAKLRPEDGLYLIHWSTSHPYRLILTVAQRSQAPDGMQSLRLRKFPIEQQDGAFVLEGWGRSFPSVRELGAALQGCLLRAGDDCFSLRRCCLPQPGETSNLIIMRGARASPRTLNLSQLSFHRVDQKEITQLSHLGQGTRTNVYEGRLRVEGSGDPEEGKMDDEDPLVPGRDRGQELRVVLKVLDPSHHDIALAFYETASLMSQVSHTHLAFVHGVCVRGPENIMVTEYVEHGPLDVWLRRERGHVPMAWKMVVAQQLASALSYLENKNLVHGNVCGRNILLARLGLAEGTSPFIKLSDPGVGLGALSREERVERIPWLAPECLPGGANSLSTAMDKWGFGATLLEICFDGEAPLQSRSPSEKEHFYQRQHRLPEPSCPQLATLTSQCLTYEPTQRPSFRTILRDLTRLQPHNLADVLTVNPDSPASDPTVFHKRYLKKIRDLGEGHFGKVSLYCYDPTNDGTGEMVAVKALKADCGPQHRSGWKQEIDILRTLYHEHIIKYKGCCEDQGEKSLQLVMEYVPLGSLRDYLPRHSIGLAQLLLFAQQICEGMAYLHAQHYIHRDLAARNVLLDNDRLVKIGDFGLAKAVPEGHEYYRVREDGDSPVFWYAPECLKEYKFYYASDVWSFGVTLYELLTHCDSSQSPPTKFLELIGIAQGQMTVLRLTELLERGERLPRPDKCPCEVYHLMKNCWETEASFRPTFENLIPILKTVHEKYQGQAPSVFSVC

Legend:
Assay in all cases: number of time points (of 5) at which kinase-Nluc abundance scored as decreased, DMSO-normalised (count); higher = more persistent destabilization
Conditions in all cases: K562; 2-18 h
PRKCA = PRKCA (UniProt P17252)
PTK2 = PTK2 (UniProt Q05397)
PTK2B = PTK2B (UniProt Q14289)
RAF1 = RAF1 (UniProt P04049)
[1] = molecular target: RAF1_S257L (clone: RAF1_mut) (UniProt P04049)
RET = RET (UniProt P07949)
[2] = molecular target: RET_M918T (clone: RET_mut) (UniProt P07949)
RIOK1 = RIOK1 (UniProt Q9BRS2)
RIPK1 = RIPK1 (UniProt Q13546)
RIPK2 = RIPK2 (UniProt O43353)
ROR2 = ROR2 (UniProt Q01974)
RPS6KA1 = RPS6KA1 (UniProt Q15418)
SPHK1 = SPHK1 (UniProt Q9NYA1)
SRC = SRC (UniProt P12931)
STK24 = STK24 (UniProt Q9Y6E0)
STK38 = STK38 (UniProt Q15208)
SYK = SYK (UniProt P43405)
TEC = TEC (UniProt P42680)
TYK2 = TYK2 (UniProt P29597)
ULK3 = ULK3 (UniProt Q6PHR2)

Measured: number of time points

O=c1cc(O)c2ccccc2o1 [4-Hydroxycoumarin] (10 µM)
0: all assays above

CCCCNc1nc(N)c2[nH]c(=O)n(Cc3ccc(C)nc3)c2n1 (10 µM)
1: PTK2
0: all other assays above

C/C=C(/C)C(=O)O[C@H]1[C@@H]2[C@H](C)C(=O)O[C@@H]2C[C@@H](C)[C@@H]2C=CC(=O)[C@]21C [Brevilin A] (2.5 µM)
0: all assays above

CCOC(=O)c1c(/C(C#N)=C\N)c2ccc(Cl)c(Cl)c2n1C (10 µM)
0: all assays above

COc1cc2c(cc1F)C(c1ccccc1Cl)=Nc1c(n[nH]c1C)N2 (0.5 µM)
not listed: RET | [2]
0: all other assays above

O=[N+]([O-])/C=C/c1ccc2c(c1)OCO2 (2.5 µM)
0: all assays above

CC(=O)c1c(O)c(C)c(O)c(Cc2c(O)c3c(c(C(=O)/C=C/c4ccccc4)c2O)OC(C)(C)C=C3)c1O [Rottlerin] (2 µM)
2: TYK2
0: all other assays above

N#CC(C#N)=Cc1ccc(O)c(O)c1 [Tyrphostin 23] (10 µM)
not listed: PTK2B
0: all other assays above

C[C@H](CCC(=O)O)C[C@H](C)C[C@H](C)C(=O)/C=C(\O)[C@H](C)C[C@H](C)C/C=C/[C@@H](C)[C@@H](O)[C@@H](C)[C@@H](O)C[C@@H]1CC[C@@](C)([C@H]2CC[C@@](C)([C@@H](C)O)O2)O1 [Ionomycin (calcium)] (2.5 µM)
5: RIOK1 | STK38
1: PTK2 | SPHK1
0: all other assays above

C[C@H](Nc1ncnc2[nH]cnc12)c1nc2ccc(F)cc2c(=O)n1-c1ccccc1 [Acalisib] (10 µM)
0: all assays above

COc1ccc(/C=C/c2cc(OC)c(OC)c(OC)c2)cc1 (2.5 µM)
3: RIPK2
1: [1] | RIOK1 | TEC | ULK3
2: RAF1 | TYK2
0: all other assays above
